Source: the supplement of paper PMC12819154, “High-throughput peptide-centric local stability assay extends protein–ligand identification to membrane proteins, tissues and bacteria” (Nature Structural & Molecular Biology, 2025)
Some of the results follow. Small differences around the control level are noise.

Amino acid sequences for entries named in this document (tags omitted). A change or cut given only in a name is not applied to a line headed by its entry.
UniProt Q9H9Q2: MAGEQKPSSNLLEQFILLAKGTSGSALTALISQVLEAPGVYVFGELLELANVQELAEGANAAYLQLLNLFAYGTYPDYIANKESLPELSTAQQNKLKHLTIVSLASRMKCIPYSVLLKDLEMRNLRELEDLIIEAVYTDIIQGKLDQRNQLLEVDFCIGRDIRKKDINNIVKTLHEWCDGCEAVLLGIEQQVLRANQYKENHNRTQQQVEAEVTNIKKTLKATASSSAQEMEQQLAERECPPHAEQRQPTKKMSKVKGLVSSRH
UniProt Q9NQA3: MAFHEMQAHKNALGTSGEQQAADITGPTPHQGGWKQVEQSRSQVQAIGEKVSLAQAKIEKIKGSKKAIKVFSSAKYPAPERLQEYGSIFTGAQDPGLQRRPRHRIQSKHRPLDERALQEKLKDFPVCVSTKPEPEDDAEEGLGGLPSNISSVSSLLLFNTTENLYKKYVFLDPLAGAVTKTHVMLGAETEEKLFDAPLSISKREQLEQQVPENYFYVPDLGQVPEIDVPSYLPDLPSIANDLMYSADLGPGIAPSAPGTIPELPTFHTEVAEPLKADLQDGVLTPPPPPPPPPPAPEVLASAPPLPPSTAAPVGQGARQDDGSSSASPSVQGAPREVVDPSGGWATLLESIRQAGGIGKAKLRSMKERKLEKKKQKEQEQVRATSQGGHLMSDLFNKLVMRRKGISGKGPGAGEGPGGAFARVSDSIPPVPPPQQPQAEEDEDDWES
UniProt Q9NQG5: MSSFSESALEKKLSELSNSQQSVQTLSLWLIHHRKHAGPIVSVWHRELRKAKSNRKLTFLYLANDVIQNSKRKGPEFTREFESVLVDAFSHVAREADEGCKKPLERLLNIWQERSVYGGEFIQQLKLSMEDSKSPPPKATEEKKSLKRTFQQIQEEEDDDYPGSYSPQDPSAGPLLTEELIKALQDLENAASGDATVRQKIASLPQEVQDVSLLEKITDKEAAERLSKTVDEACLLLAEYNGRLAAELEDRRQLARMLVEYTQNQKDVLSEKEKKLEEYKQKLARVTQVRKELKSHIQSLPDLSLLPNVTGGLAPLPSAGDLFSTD
UniProt Q9H939: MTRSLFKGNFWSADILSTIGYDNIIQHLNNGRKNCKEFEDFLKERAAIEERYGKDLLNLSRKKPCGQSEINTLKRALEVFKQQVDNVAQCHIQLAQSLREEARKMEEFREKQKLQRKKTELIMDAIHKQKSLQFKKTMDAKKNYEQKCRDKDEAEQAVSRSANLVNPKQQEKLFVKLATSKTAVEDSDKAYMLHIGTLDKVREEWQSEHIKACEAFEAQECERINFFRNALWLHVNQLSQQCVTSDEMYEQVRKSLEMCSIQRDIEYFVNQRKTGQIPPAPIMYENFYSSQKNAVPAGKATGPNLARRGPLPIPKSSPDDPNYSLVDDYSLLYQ
UniProt Q9HD40: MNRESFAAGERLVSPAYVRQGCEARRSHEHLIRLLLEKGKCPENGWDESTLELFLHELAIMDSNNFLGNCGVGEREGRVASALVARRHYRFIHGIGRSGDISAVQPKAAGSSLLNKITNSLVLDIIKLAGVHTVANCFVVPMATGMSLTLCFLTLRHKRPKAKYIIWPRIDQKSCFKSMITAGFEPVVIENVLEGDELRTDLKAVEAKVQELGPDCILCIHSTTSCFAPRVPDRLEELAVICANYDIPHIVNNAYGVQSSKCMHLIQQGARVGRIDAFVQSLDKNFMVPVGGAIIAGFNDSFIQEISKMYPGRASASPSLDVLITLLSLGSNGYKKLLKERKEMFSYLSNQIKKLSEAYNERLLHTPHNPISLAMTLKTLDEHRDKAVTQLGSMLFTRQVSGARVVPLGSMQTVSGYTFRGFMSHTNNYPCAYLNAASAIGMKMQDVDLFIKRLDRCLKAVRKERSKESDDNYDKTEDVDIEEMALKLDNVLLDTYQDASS
UniProt Q9H7T9: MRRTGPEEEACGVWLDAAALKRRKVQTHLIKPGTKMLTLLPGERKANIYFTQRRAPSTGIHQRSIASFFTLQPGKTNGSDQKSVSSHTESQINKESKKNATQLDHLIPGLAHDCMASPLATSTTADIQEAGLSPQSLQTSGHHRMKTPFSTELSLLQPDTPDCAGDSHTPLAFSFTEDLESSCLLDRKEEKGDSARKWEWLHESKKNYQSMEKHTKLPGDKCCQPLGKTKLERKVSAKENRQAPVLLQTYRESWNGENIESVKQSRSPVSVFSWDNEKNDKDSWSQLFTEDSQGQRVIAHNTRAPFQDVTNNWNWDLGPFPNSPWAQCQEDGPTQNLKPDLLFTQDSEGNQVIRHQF
UniProt Q9HAJ7: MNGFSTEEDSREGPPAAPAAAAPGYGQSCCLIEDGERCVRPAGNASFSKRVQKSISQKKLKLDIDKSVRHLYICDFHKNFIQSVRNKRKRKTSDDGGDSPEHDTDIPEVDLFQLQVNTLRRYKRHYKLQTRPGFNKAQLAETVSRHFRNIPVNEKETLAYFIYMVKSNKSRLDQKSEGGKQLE
UniProt Q9H967: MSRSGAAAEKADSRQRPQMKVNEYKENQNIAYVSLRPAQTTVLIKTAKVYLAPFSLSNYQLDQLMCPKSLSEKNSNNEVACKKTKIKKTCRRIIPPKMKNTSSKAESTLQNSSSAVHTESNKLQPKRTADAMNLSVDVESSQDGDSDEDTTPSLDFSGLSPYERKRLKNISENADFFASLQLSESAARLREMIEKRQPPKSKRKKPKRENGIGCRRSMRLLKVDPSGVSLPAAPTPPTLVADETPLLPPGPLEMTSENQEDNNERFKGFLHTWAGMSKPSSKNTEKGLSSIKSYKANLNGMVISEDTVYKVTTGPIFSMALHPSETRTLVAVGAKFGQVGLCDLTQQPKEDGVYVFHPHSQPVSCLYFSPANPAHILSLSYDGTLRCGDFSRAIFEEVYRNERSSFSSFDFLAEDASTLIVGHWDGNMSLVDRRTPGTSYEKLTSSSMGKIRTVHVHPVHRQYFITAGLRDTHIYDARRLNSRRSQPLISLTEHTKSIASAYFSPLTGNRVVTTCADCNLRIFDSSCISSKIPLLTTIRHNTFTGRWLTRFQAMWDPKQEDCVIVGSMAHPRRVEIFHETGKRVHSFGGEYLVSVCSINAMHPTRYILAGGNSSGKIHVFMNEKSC
UniProt Q9H4P4: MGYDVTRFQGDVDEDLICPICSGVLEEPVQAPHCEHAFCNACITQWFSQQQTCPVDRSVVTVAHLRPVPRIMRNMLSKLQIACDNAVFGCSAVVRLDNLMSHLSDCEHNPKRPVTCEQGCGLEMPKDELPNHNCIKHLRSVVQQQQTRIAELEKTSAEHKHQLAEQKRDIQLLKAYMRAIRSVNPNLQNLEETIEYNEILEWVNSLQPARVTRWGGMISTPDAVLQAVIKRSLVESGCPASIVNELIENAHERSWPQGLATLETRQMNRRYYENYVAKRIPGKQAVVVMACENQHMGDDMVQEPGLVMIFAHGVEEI
UniProt Q9HCE1: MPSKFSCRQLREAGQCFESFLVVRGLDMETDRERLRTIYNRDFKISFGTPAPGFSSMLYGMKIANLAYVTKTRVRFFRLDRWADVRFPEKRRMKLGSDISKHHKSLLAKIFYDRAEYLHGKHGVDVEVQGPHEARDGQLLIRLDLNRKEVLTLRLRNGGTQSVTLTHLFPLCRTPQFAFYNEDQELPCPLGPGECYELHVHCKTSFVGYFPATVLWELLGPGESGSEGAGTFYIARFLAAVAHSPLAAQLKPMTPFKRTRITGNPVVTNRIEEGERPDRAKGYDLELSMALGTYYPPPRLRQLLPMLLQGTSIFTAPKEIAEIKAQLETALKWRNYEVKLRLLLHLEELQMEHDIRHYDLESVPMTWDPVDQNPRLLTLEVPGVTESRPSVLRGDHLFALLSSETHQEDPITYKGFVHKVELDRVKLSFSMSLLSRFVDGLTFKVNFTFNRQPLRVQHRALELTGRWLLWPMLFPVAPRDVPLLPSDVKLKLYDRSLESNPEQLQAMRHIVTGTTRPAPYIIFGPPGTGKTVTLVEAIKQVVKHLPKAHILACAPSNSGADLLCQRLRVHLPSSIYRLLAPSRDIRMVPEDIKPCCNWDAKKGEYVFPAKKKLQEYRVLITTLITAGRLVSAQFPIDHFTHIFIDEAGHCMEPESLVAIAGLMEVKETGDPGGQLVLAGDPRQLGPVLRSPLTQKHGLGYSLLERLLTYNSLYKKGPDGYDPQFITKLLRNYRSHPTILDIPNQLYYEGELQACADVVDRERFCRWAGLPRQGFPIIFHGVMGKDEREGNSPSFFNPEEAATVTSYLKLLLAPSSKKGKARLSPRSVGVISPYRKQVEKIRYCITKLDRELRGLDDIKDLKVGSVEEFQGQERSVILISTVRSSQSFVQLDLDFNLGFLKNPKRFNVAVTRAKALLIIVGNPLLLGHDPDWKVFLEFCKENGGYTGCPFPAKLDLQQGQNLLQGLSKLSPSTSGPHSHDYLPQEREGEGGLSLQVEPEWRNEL
UniProt Q9H6W3: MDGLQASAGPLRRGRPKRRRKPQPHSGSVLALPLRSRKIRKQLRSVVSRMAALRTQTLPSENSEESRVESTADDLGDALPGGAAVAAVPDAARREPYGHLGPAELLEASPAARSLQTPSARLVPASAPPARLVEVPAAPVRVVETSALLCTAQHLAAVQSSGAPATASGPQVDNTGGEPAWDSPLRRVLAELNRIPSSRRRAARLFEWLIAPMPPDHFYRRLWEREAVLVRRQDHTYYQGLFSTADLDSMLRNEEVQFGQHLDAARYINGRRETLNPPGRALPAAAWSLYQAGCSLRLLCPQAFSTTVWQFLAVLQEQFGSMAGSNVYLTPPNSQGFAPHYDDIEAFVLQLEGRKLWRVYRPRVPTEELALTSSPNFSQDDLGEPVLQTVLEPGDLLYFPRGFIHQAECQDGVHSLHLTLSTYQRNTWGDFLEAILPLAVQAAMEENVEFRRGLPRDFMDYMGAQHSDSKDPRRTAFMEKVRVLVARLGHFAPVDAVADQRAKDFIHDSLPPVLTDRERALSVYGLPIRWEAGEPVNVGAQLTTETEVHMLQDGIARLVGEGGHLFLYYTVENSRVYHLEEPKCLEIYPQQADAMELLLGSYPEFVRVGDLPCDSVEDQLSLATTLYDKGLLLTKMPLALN
UniProt Q9H8N7: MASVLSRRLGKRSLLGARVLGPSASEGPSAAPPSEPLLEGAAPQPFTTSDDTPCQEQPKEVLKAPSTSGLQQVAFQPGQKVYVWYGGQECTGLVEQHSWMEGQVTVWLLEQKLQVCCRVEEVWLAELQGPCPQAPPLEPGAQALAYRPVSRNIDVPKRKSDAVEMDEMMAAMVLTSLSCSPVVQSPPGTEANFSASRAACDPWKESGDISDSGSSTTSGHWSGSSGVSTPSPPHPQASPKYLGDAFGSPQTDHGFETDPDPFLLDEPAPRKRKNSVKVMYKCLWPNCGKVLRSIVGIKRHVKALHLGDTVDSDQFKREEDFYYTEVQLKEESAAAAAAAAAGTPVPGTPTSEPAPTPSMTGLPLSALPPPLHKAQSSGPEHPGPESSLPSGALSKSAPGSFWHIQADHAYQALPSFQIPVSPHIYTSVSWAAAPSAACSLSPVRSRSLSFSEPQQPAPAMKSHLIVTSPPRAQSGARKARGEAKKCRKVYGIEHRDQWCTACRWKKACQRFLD
UniProt Q9H9Q4: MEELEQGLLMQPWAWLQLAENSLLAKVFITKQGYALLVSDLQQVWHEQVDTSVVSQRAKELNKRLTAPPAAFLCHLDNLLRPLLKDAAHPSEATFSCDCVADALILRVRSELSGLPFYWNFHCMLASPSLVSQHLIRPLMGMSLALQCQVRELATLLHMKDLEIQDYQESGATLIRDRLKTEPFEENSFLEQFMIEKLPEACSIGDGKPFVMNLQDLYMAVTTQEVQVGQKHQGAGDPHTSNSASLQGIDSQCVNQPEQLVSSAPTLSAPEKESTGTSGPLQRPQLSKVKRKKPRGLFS
UniProt Q9H7H0: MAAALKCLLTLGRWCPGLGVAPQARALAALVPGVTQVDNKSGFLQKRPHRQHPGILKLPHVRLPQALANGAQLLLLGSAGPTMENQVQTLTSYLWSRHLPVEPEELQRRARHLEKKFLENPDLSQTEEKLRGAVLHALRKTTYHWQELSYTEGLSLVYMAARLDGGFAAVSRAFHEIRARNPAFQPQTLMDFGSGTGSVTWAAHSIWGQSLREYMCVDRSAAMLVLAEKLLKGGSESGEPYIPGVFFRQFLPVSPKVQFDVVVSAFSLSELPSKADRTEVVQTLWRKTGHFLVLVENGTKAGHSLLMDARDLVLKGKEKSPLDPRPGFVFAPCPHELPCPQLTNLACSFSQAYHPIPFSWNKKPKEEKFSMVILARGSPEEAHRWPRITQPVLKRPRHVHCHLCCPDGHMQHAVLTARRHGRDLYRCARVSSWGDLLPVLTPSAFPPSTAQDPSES
UniProt Q9H633: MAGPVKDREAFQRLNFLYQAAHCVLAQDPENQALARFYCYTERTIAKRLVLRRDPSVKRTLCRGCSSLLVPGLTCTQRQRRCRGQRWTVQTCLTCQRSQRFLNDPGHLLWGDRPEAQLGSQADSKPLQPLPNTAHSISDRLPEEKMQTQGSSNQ

These targets were tested with CN[C@@H]1C[C@H]2O[C@@](C)([C@@H]1OC)n1c3ccccc3c3c4c(c5c6ccccc6n2c5c31)C(=O)NC4 [staurosporine] (assay: log2 fold change of tryptic peptide abundance, ligand vs vehicle (limited proteolysis) (log2 ratio); higher = more trypsin-susceptible (destabilized)). Conditions: ligand concentration: 20 uM; sample: K562 cleared lysate; digestion: 4 min, 22 C (HT-PELSA RT4min, Orbitrap Astral).
“TNS1 (peptide sequence: HPAGVYQVSGLHNK, peptide start residue: 1353) (UniProt Q9HBL0)” showed a log2 fold change of 0.372. Target “COPS7B (peptide sequence: VKGLVSSRH, peptide start residue: 256) (UniProt Q9H9Q2)” has a log2 fold change of -0.21. With “TFB2M (peptide sequence: LYLIQMIPR, peptide start residue: 296) (UniProt Q9H5Q4)” the log2 fold change was 0.378. Target “WASH6P (peptide sequence: QDDGSSSASPSVQGAPR, peptide start residue: 319) (UniProt Q9NQA3)” has a log2 fold change of -0.235. Work on “RPRD1B (peptide sequence: LTFLYLANDVIQNSKR, peptide start residue: 57) (UniProt Q9NQG5)” yielded a log2 fold change of 0.49. “DMAP1 (peptide sequence: DTIIDVVGAPLTPNSR, peptide start residue: 434) (UniProt Q9NPF5)” gave a log2 fold change of 0.4. In the case of “PSTPIP2 (peptide sequence: DKDEAEQAVSR, peptide start residue: 150) (UniProt Q9H939)”, the log2 fold change is reported as 0.373. Target “ZHX3 (peptide sequence: QSWHQTPDFTPTK, peptide start residue: 603) (UniProt Q9H4I2)” has a log2 fold change of 0.358. For “UniProt Q9H8G2 (peptide sequence: YILPTLEK, peptide start residue: 105)”, the log2 fold change was 0.159. “EPB41L5 (peptide sequence: CLNNVIESPGLNVMR, peptide start residue: 543) (UniProt Q9HCM4)” showed a log2 fold change of -0.647. For “ACAD9 (peptide sequence: VSTVMDTVGR, peptide start residue: 460) (UniProt Q9H845)”, the log2 fold change was -0.205. In the case of “SEPSECS (peptide sequence: SKESDDNYDKTEDVDIEEMALK, peptide start residue: 466) (UniProt Q9HD40)”, the log2 fold change is reported as -0.101. For “AUNIP (peptide sequence: KANIYFTQR, peptide start residue: 45) (UniProt Q9H7T9)”, the log2 fold change was 0.463. “SAP30L (peptide sequence: HLYICDFHK, peptide start residue: 70) (UniProt Q9HAJ7)” was tested, and the log2 fold change was -0.467. Work on “UniProt Q9HCM1 (peptide sequence: HLSMEVPQSR, peptide start residue: 300)” yielded a log2 fold change of 0.941. With “ZCCHC4 (peptide sequence: FIELPLTQR, peptide start residue: 114) (UniProt Q9H5U6)” the log2 fold change was 0.22. With “WDR76 (peptide sequence: NSNNEVACK, peptide start residue: 74) (UniProt Q9H967)” the log2 fold change was 0.8. With “CARS2 (peptide sequence: QPLLEACDTLR, peptide start residue: 520) (UniProt Q9HA77)” the log2 fold change was -0.35. In the case of “RNF41 (peptide sequence: SVVQQQQTR, peptide start residue: 140) (UniProt Q9H4P4)”, the log2 fold change is reported as 0.0466. “HINT3 (peptide sequence: VNSYWFITADHLIEKLRT, peptide start residue: 165) (UniProt Q9NQE9)” was tested, and the log2 fold change was 0.749. “SH2D2A (peptide sequence: LLEPKPQGCYLVR, peptide start residue: 108) (UniProt Q9NP31)” showed a log2 fold change of 0.523. With “MOV10 (peptide sequence: LRVHLPSSIYR, peptide start residue: 567) (UniProt Q9HCE1)” the log2 fold change was 0.662. In the case of “UniProt Q9H6W3 (peptide sequence: REPYGHLGPAELLEASPAAR, peptide start residue: 94)”, the log2 fold change is reported as -0.331. “UniProt Q9H8N7 (peptide sequence: DQWCTACR, peptide start residue: 496)” was tested, and the log2 fold change was -0.178. In the case of “GOPC (peptide sequence: SQGVGPIRK, peptide start residue: 280) (UniProt Q9HD26)”, the log2 fold change is reported as 0.674. Target “NHEJ1 (peptide sequence: ESTGTSGPLQRPQLSK, peptide start residue: 273) (UniProt Q9H9Q4)” has a log2 fold change of 0.051. With “UniProt Q9H7H0 (peptide sequence: FSMVILAR, peptide start residue: 369)” the log2 fold change was 0.71. In the case of “RPP21 (peptide sequence: PLQPLPNTAHSISDRLPEEK, peptide start residue: 126) (UniProt Q9H633)”, the log2 fold change is reported as 0.235.
